32 targets from the supplement of paper PMC10849652 can be followed below.

By UniProt entry, the sequences of proteins in these tests, tags left out. Where a name states a change or a piece, a line headed by the entry shows the natural chain unless it says otherwise.
UniProt Q6P2H3: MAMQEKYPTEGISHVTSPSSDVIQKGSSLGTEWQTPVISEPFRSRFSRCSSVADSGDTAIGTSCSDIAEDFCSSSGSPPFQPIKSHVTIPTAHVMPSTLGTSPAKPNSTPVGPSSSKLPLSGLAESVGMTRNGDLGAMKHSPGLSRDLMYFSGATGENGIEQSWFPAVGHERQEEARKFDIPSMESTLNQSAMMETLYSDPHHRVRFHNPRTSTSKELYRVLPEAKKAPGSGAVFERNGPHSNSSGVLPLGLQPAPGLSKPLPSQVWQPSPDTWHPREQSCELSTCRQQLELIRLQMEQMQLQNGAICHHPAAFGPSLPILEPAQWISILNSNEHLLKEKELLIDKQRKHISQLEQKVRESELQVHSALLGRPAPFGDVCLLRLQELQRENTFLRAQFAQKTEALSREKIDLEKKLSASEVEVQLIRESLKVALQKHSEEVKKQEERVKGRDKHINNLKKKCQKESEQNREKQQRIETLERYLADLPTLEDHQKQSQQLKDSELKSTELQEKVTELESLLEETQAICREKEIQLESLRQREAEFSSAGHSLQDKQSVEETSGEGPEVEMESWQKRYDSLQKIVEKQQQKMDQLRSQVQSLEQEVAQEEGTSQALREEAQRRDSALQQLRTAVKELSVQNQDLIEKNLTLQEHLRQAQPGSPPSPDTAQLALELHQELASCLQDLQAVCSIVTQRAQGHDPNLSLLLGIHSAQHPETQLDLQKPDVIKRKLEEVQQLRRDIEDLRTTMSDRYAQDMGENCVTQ
UniProt Q71F23: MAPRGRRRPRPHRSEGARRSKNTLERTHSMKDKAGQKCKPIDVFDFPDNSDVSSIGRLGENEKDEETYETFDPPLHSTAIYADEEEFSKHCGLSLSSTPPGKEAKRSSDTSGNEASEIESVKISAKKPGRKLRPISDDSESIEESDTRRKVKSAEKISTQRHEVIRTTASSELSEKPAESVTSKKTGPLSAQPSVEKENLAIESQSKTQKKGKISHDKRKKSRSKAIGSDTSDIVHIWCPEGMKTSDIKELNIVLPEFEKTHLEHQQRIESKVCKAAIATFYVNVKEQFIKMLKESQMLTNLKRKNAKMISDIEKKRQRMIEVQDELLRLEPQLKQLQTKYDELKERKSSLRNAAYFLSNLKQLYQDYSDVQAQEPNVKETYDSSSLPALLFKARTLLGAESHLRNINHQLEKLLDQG
UniProt Q5VT25: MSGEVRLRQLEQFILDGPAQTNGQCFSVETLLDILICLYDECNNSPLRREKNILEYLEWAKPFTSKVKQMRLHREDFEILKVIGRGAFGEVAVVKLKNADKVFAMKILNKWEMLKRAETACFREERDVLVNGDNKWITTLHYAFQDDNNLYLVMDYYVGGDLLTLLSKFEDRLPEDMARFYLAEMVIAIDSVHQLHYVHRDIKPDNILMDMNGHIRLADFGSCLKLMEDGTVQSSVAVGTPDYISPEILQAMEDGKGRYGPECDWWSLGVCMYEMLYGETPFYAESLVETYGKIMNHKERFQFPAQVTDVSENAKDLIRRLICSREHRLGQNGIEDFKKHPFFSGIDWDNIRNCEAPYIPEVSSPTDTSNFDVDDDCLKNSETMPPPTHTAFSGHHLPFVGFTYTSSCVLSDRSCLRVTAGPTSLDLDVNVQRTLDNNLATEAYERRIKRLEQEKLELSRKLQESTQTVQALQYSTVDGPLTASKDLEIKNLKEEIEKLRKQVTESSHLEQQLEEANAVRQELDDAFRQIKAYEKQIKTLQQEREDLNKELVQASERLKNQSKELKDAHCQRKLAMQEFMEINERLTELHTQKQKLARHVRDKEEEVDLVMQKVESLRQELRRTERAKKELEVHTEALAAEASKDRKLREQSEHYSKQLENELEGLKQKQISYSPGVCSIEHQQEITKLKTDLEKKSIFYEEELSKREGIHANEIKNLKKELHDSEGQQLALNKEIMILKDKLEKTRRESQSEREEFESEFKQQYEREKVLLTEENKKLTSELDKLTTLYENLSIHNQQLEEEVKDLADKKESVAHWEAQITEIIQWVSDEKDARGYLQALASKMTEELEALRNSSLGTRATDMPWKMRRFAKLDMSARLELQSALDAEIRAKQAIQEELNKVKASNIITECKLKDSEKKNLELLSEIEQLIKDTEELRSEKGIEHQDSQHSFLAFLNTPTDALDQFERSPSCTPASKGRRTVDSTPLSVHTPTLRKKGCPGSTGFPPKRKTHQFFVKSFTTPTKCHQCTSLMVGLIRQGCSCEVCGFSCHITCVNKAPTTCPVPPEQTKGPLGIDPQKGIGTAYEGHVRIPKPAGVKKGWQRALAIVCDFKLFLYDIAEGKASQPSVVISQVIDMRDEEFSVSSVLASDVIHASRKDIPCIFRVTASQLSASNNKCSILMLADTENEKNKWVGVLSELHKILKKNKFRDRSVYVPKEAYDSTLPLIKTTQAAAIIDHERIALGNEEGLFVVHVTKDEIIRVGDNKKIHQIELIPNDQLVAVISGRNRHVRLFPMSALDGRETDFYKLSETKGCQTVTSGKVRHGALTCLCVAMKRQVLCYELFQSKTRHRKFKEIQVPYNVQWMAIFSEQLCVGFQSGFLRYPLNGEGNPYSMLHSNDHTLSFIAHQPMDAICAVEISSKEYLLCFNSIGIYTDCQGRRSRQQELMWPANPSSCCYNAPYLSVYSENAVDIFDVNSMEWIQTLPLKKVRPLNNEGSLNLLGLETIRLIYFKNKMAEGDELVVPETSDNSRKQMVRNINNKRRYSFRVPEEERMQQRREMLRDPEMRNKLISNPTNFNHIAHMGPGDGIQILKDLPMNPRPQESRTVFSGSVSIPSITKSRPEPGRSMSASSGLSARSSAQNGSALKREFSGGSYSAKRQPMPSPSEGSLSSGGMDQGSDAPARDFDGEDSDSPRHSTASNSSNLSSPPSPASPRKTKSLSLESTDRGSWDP
UniProt Q8N960: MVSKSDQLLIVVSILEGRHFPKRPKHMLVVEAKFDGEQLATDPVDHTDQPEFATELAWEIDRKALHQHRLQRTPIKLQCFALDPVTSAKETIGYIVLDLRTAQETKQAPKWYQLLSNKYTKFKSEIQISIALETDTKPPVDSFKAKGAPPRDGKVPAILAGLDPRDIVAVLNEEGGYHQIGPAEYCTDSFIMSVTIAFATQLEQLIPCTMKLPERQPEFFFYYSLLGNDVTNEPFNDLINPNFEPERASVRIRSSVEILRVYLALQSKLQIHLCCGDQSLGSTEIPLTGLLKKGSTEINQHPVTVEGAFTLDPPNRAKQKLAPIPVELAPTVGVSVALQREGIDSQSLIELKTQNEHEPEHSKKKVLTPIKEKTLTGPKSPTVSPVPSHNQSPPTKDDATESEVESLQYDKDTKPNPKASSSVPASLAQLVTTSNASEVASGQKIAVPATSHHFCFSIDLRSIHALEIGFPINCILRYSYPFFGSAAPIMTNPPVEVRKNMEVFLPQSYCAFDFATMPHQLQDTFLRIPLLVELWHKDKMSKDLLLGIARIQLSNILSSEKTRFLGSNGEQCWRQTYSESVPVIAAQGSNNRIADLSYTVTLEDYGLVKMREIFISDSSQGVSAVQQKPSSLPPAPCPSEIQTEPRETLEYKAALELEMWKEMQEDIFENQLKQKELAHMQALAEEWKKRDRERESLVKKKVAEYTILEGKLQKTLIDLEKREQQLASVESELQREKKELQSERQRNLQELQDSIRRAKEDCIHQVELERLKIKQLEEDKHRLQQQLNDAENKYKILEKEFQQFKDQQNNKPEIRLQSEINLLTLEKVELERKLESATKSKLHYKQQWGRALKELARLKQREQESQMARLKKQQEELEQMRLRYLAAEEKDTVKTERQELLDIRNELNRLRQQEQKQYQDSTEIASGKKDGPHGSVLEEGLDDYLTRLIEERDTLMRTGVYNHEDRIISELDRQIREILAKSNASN
UniProt Q9Y5P4: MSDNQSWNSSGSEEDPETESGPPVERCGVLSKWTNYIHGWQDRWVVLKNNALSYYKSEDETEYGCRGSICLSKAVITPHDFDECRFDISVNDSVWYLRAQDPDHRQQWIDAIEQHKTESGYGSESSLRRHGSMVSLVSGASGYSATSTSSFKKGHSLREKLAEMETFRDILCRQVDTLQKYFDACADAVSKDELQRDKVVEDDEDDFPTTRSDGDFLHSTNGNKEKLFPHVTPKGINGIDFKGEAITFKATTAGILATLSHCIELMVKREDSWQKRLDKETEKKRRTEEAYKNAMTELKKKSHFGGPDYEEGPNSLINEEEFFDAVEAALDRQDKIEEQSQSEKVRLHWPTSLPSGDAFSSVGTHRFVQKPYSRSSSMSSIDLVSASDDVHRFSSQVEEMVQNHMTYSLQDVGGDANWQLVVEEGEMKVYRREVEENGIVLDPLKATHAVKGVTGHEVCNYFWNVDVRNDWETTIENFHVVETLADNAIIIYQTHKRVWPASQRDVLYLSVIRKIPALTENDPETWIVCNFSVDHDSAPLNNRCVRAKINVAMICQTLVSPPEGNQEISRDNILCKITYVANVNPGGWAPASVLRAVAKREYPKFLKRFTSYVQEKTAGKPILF
UniProt Q8IWY9: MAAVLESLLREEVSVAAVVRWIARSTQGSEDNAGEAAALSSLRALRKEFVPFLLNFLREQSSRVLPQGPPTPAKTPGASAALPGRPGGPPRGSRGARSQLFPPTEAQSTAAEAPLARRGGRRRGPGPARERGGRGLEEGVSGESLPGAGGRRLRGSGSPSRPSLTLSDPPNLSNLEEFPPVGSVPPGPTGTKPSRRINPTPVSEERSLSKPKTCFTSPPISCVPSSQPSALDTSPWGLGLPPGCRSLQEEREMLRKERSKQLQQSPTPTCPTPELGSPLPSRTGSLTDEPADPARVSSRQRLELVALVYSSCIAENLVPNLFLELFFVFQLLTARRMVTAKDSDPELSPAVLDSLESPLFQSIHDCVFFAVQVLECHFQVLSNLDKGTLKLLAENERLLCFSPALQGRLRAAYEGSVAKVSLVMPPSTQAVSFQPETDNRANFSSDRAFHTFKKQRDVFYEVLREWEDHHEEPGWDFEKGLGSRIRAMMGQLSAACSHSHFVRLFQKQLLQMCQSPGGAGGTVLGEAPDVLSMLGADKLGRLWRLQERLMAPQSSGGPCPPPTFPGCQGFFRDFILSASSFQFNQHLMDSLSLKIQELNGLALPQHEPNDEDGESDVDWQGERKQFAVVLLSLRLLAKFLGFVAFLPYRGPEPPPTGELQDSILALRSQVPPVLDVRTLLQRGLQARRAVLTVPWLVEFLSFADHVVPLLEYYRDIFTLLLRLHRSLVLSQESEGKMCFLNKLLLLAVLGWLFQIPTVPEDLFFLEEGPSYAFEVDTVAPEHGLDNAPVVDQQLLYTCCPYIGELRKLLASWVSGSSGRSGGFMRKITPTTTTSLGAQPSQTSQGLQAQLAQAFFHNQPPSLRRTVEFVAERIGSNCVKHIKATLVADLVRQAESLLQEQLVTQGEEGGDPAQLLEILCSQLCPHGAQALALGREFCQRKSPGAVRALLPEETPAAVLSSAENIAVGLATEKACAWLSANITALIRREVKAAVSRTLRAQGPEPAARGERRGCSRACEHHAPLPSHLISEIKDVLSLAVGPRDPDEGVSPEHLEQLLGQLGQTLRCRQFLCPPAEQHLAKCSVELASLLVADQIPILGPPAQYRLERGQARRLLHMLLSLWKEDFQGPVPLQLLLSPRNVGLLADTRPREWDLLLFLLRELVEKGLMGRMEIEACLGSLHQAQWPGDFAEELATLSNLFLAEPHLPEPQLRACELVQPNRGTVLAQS
UniProt Q8WUX2: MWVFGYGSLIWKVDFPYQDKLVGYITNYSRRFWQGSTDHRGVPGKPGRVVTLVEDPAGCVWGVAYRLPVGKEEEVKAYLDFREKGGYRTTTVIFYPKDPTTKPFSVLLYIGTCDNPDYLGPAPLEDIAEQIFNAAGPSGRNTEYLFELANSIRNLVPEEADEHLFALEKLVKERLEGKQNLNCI
UniProt Q96FF9: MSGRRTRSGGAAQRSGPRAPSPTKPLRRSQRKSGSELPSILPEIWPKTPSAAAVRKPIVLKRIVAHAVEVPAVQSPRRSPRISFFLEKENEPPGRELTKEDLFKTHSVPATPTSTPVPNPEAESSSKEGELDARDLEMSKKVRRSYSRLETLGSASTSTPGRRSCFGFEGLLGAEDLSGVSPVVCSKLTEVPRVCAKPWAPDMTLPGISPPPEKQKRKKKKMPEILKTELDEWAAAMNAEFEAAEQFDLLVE
UniProt Q6ZMG9: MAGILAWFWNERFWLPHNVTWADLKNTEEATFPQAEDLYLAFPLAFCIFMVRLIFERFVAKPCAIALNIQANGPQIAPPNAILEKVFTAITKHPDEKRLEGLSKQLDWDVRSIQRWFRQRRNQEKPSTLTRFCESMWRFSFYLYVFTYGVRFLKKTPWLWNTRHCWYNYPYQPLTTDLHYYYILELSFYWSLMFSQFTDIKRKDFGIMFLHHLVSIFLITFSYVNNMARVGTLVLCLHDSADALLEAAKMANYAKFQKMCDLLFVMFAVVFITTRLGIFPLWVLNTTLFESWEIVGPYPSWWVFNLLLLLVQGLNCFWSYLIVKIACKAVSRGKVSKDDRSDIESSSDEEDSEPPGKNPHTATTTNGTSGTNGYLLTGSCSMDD

Some of the results follow.

Compound in one experiment: C[C@H](C1=CC=C(C=C1)C(=O)NC2=C3C=CNC3=NC=C2)N
Kind of experiment: log2 fold change, soluble protein after heating vs DMSO (PISA); higher = thermal stabilisation; K562 lysate, 10 uM; active = over 0.2 and 3.5 SD of the protein, either way, in both replicates (recomputed). In short, it runs like this: (§1)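 Dounce homogenisation of K562 pellets in PBS pH 7.4 with 1 mM MgCl2 produced a crude extract, used at 1 mg/mL protein. Exposure to 10 μM compound lasted 30 min, and aliquots were then heated for 3 min across 48°C-58°C, pooled and brought to 0.5% NP-40 at 4°C. The supernatant after 21,000xg for 90 min was quantified by TMTpro 16plex LC-MS/MS with channel sums equalised. Duplicate values are given as log-two fold change in thermal stability relative to solvent controls.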
For CDC42EP1 (UniProt Q00587), the log2 fold change was inactive: 0.099.

For CDCA2 (UniProt Q69YH5), the log2 fold change was inactive: 0.014.

For CEP192 (UniProt Q8TEP8), the log2 fold change is inactive: -0.112.

Turning to CEP85 isoform 2 (UniProt Q6P2H3), the log2 fold change was inactive: 0.122.

With CDC34 (UniProt P49427), the log2 fold change is inactive: -0.016.

Take CENPU (UniProt Q71F23): the log2 fold change is inactive: 0.065.

In the case of CENPK (UniProt Q9BS16), the log2 fold change is inactive: -0.01.

Take CDK1 (UniProt P06493): the log2 fold change is inactive: -0.018.

For CEP44 (UniProt Q9C0F1), the log2 fold change was inactive: 0.054.

CDC42BPA isoform 6 (UniProt Q5VT25): the log2 fold change is inactive: 0.024.

For CEP76 (UniProt Q8TAP6), the log2 fold change was inactive: -0.063.

For CEP120 (UniProt Q8N960), the log2 fold change was inactive: -0.105.

Take CDC45 isoform 3 (UniProt O75419): the log2 fold change is inactive: 0.023.

For CDC37 (UniProt Q16543), the log2 fold change was inactive: 0.019.

For the target CEP97 (UniProt Q8IW35), the log2 fold change was inactive: 0.004.

In the case of CDC5L (UniProt Q99459), the log2 fold change was inactive: 0.066.

For CDR2 (UniProt Q01850), the log2 fold change was inactive: -0.027.

CFAP36 (UniProt Q96G28): the log2 fold change is inactive: 0.071.

Regarding CERT isoform 3 (UniProt Q9Y5P4), the log2 fold change was inactive: -0.039.

For CDAN1 (UniProt Q8IWY9), the log2 fold change was inactive: 0.

For CES2 isoform 4 (UniProt O00748), the log2 fold change was inactive: -0.003.

Consider CDK5 (UniProt Q00535), for which the log2 fold change was inactive: -0.024.

Regarding CHAC2 (UniProt Q8WUX2), the log2 fold change was active: 0.57.

Consider CDK12 (UniProt Q9NYV4), for which the log2 fold change is inactive: -0.014.

On to CDC73 (UniProt Q6P1J9), for which the log2 fold change was inactive: 0.063.

For the target CDK6 (UniProt Q00534), the log2 fold change was inactive: 0.004.

As for CDK7 (UniProt P50613), the log2 fold change was inactive: -0.034.

Turning to CDCA5 (UniProt Q96FF9), the log2 fold change is inactive: 0.037.

Turning to CERS6 isoform 2 (UniProt Q6ZMG9), the log2 fold change was inactive: -0.187.

With CFAP298 (UniProt P57076), the log2 fold change was inactive: -0.033.

Take CDK5RAP3 isoform 4 (UniProt Q96JB5): the log2 fold change was active: -0.231.

In the case of CELF2 isoform 3 (UniProt O95319), the log2 fold change is inactive: 0.104.

Compound in the next experiment: C[C@H](Nc1ncnc2nc[nH]c12)c1cc2cccc(Cl)c2c(=O)n1-c1ccccc1 [duvelisib]
The description is as above. In short, it runs like this:
as §1
For CDC42EP1 (UniProt Q00587), the log2 fold change is inactive: 0.195.

Turning to CDCA2 (UniProt Q69YH5), the log2 fold change was inactive: -0.01.

Regarding CEP192 (UniProt Q8TEP8), the log2 fold change is inactive: 0.022.

As to CEP85 isoform 2 (UniProt Q6P2H3), the log2 fold change is inactive: 0.008.

Turning to CDC34 (UniProt P49427), the log2 fold change was inactive: -0.065.

As to CENPU (UniProt Q71F23), the log2 fold change was inactive: 0.026.

For CENPK (UniProt Q9BS16), the log2 fold change is inactive: 0.022.

Turning to CDK1 (UniProt P06493), the log2 fold change is inactive: 0.031.

For the target CEP44 (UniProt Q9C0F1), the log2 fold change was inactive: -0.004.

As to CDC42BPA isoform 6 (UniProt Q5VT25), the log2 fold change is inactive: -0.007.

Turning to CEP76 (UniProt Q8TAP6), the log2 fold change is inactive: 0.141.

As to CEP120 (UniProt Q8N960), the log2 fold change was inactive: 0.005.

With CDC45 isoform 3 (UniProt O75419), the log2 fold change is inactive: -0.007.

As to CDC37 (UniProt Q16543), the log2 fold change is inactive: -0.013.

Regarding CEP97 (UniProt Q8IW35), the log2 fold change was inactive: -0.015.

As for CDC5L (UniProt Q99459), the log2 fold change was inactive: 0.011.

As to CDR2 (UniProt Q01850), the log2 fold change is inactive: -0.078.

CFAP36 (UniProt Q96G28): the log2 fold change was inactive: 0.036.

As to CERT isoform 3 (UniProt Q9Y5P4), the log2 fold change is inactive: -0.011.

For CDAN1 (UniProt Q8IWY9), the log2 fold change is inactive: 0.026.

For CES2 isoform 4 (UniProt O00748), the log2 fold change was inactive: 0.021.

As for CDK5 (UniProt Q00535), the log2 fold change is inactive: 0.03.

For the target CHAC2 (UniProt Q8WUX2), the log2 fold change was inactive: 0.038.

For the target CDK12 (UniProt Q9NYV4), the log2 fold change was inactive: -0.012.

Consider CDC73 (UniProt Q6P1J9), for which the log2 fold change is inactive: 0.023.

Consider CDK6 (UniProt Q00534), for which the log2 fold change was inactive: -0.008.

Turning to CDK7 (UniProt P50613), the log2 fold change was inactive: 0.028.

With CDCA5 (UniProt Q96FF9), the log2 fold change was inactive: 0.027.

Take CERS6 isoform 2 (UniProt Q6ZMG9): the log2 fold change is inactive: 0.208.

Regarding CFAP298 (UniProt P57076), the log2 fold change was inactive: -0.011.

As to CDK5RAP3 isoform 4 (UniProt Q96JB5), the log2 fold change was inactive: -0.002.

Consider CELF2 isoform 3 (UniProt O95319), for which the log2 fold change is inactive: -0.001.

Compound in the next experiment: Cc1cc(Nc2cc(CN3CCOCC3)c3nc(C)c(Cc4ccc(Cl)cc4F)n3n2)n[nH]1 [gandotinib]
The description is as above. In a few lines:
as §1
Take CDC42EP1 (UniProt Q00587): the log2 fold change is inactive: -0.05.

Consider CDCA2 (UniProt Q69YH5), for which the log2 fold change was inactive: 0.017.

For the target CEP192 (UniProt Q8TEP8), the log2 fold change was inactive: 0.069.

As to CEP85 isoform 2 (UniProt Q6P2H3), the log2 fold change is inactive: -0.075.

On to CDC34 (UniProt P49427), for which the log2 fold change is inactive: 0.004.

As for CENPU (UniProt Q71F23), the log2 fold change was inactive: -0.117.

As for CENPK (UniProt Q9BS16), the log2 fold change is inactive: -0.029.

Turning to CDK1 (UniProt P06493), the log2 fold change is inactive: -0.224.

As to CEP44 (UniProt Q9C0F1), the log2 fold change was inactive: -0.064.

As for CDC42BPA isoform 6 (UniProt Q5VT25), the log2 fold change was inactive: -0.05.

With CEP76 (UniProt Q8TAP6), the log2 fold change is inactive: 0.007.

Regarding CEP120 (UniProt Q8N960), the log2 fold change was inactive: 0.016.

For the target CDC45 isoform 3 (UniProt O75419), the log2 fold change is inactive: -0.079.

With CDC37 (UniProt Q16543), the log2 fold change is inactive: 0.001.

For CEP97 (UniProt Q8IW35), the log2 fold change is inactive: -0.001.

Take CDC5L (UniProt Q99459): the log2 fold change was inactive: -0.076.

Regarding CDR2 (UniProt Q01850), the log2 fold change was inactive: 0.032.

In the case of CFAP36 (UniProt Q96G28), the log2 fold change is inactive: -0.022.

As to CERT isoform 3 (UniProt Q9Y5P4), the log2 fold change was inactive: -0.068.

Consider CDAN1 (UniProt Q8IWY9), for which the log2 fold change was inactive: -0.073.

With CES2 isoform 4 (UniProt O00748), the log2 fold change is inactive: 0.016.

As for CDK5 (UniProt Q00535), the log2 fold change is inactive: 0.451.

For CHAC2 (UniProt Q8WUX2), the log2 fold change is inactive: -0.161.

Turning to CDK12 (UniProt Q9NYV4), the log2 fold change is inactive: -0.191.

As to CDC73 (UniProt Q6P1J9), the log2 fold change was inactive: -0.082.

As for CDK6 (UniProt Q00534), the log2 fold change was inactive: -0.064.

Take CDK7 (UniProt P50613): the log2 fold change is inactive: 0.108.

Take CDCA5 (UniProt Q96FF9): the log2 fold change is inactive: 0.234.

As for CERS6 isoform 2 (UniProt Q6ZMG9), the log2 fold change is inactive: -0.052.

CFAP298 (UniProt P57076): the log2 fold change is inactive: -0.03.

Consider CDK5RAP3 isoform 4 (UniProt Q96JB5), for which the log2 fold change is inactive: 0.173.

Regarding CELF2 isoform 3 (UniProt O95319), the log2 fold change is inactive: -0.052.
